“And” between values parts separate entries of the source, which are not always exact repeats. Equal values may be shown once. The campaign covered roughly 580,000 compounds. About 6,100 (1.1%) were called active. The inconclusive results got no clear call from the source; some entries with a clear call stand among them for comparison. Calls follow the shape of the dose curve; as a rule, active = well fitted inhibition curve with a large enough effect; inconclusive = small, poorly fitted or top-dose-only effect, or another doubt; inactive = no such curve, though single readings can be large or run the other way. A potency beside an inconclusive call is a rough fit, not a confirmed value.
Molecular target: Polyunsaturated fatty acid lipoxygenase ALOX12 (Homo sapiens) (UniProt P18054)
Test: Primary qHTS assay for inhibitors of human arachidonate 12S-lipoxygenase (ALOX12): Round 2
Conditions: purified 12hLO, xylenol orange hydroperoxide absorbance; activity change, negative = inhibition: at 108 µM (top of the series) unless noted
In short: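 Purified human 12hLO (150 nM final) in 25 mM Hepes, 0.01% Triton X-100, pH 7.0 was preincubated 15 min at room temperature with compound. Then 40 uM arachidonic acid was added, 30 min. Hydroperoxide was read by Fe-XO absorbance ratio 573/405 nm.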
% is scaled to controls: 0 for no effect and ±100 for the full control effect; potency is read from the fitted curve at half-maximal effect.

The chains behind the UniProt entries cited, without tags or fusion partners. Where a name states a change or a piece, a line headed by the entry shows the natural chain unless it says otherwise.
UniProt P18054: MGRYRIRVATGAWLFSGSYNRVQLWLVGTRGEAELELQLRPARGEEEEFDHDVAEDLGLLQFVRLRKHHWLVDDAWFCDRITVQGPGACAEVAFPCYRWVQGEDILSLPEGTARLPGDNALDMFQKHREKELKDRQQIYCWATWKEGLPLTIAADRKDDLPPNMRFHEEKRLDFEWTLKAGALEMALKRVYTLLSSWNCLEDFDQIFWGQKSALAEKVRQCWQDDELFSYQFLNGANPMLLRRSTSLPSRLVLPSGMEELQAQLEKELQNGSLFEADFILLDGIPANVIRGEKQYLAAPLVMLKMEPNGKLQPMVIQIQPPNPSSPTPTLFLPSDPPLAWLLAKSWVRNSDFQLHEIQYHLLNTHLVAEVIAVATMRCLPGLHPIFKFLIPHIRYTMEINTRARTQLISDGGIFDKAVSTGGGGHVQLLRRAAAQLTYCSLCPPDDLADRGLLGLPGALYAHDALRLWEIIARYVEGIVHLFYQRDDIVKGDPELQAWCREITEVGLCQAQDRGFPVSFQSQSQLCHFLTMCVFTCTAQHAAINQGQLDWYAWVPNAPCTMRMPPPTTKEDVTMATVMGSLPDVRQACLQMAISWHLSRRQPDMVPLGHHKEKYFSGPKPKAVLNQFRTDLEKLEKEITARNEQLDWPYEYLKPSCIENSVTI

| Compound | Potency | activity change, negative = inhibition |
| --- | --- | --- |
| CCC(C)c1ccc(OC)c(-c2csc(N)n2)c1 (configuration not stated) | inconclusive: 17.8 µM [inhibitor, partial curve] | – |
| Cc1noc(C)c1[S+](=O)([O-])N1CCC2OCCN(Cc3ccccc3)C(=O)C2C1 (configuration not stated) | active: 100 µM | – |
| O=c1c2ccccc2nc(SCc2nc3ccccc3s2)n1Cc1ccco1 | – | inactive: 0.165% |
| NC(=S)N/N=C/c1ccccc1 | inconclusive: 50.1 µM [inhibitor, partial curve, poor fit] | – |
| CCOC(=O)Cn1c(=O)c2c(nc(N3CCCCC3)n2Cc2ccccc2)n(C)c1=O | – | inactive: 0% |
| O=C(O)c1ccccc1C(=O)OCc1ccccc1 | inconclusive: 50.1 µM [inhibitor, partial curve, poor fit] | – |
| COc1ccc(Br)cc1CNC(=O)CCCn1c(=O)c2cccn2c2cccnc21 | inconclusive: 70.8 µM [inhibitor, partial curve, poor fit] | – |
| CC(C)(C)C(=O)Nc1nc2c(s1)C[C@@H]1[C@](C)(CO)[C@H](O)CC[C@@]1(C)[C@@H]2CC(=O)NC1CCCC1 | inconclusive: 50.1 µM [inhibitor, partial curve, poor fit] | – |
| CCOc1ccc(N2C(=O)c3cccnc3C2Nc2ccc(Cl)cc2)cc1 (configuration not stated) | inconclusive: 50.1 µM [inhibitor, partial curve, poor fit] | – |
| FC(F)(F)c1ccc(Cl)c(N/N=C/c2ccc(OCc3ccccc3)cc2)c1 | active: 2.51 µM | – |
| C/C(=N\NC(=O)c1cccc(Cl)c1)C1C(=O)c2ccccc2C1=O | – | inactive: -0.591% |
| COc1ccc(-c2noc(-c3ccccc3OCC(=O)Nc3ccc(C(C)=O)cc3)n2)cc1 | – | inactive: -19.9% |
| C[C@H](NC(=O)C[C@@H]1C=C[C@@H](NC(=O)CN2CCOCC2)[C@@H](CO)O1)c1ccccc1 | – | inactive: -15.2% |
| CCOC(=O)c1[nH]c(C)c(C(=O)OCc2ccccc2)c1C | inconclusive: 25.1 µM [inhibitor, single point] | – |
| COc1cccc2cc(C(=O)C3=C(O)C(=O)N(CCN4CCOCC4)C3c3ccc(C(C)(C)C)cc3)oc12 (configuration not stated) | inconclusive: 44.7 µM [inhibitor, partial curve] | – |
| CN=C(NC#N)NCCSCc1nc[nH]c1C | inconclusive: 39.8 µM [inhibitor, partial curve, poor fit] | – |
| CCCCNc1nc2ccccc2nc1NS(=O)(=O)c1ccccc1 | inconclusive: 39.8 µM [inhibitor, partial curve, poor fit] | – |
| O=C(CCc1n[nH]c2c1CCCC2)N1CC[C@H]2CNC[C@H]21 | inconclusive: 7.94 µM [inhibitor, full curve, poor fit] | – |
| C[C@H](CO)N1C[C@H](C)[C@@H](CN(C)C(=O)Nc2ccc(C(F)(F)F)cc2)Oc2ccc(NS(=O)(=O)c3cn(C)cn3)cc2C1=O | – | inactive: -10.4% |
| Cc1cccc(Cl)c1OCCCN1CCOCC1 | inconclusive: 0.282 µM [inhibitor, full curve, poor fit] | – |
| CCc1cccc(NC(=O)Cn2c(C(=O)OC)cc3occc32)c1 | inconclusive: 112 µM [inhibitor, single point] | – |
| COc1ccc(NC(=O)C(C)(C)C)cc1Cl | – | inactive: -4.46% |
| Cc1ccc(C(=O)/C=C/c2ccc(-c3ccc(C)c(Cl)c3)o2)cc1 | active: 14.1 µM | – |

| Compound | Potency | activity change, negative = inhibition |
| --- | --- | --- |
| Cc1ccc(-n2c(SCC(=O)Nc3ccc(Cl)cc3)nc(O)cc2=O)cc1 | inconclusive: 3.16 µM [inhibitor, full curve, poor fit] | – |
| O=[S+]([O-])(c1ccccc1)N1CC(Oc2ccc(F)c(F)c2)C1 | – | inactive: 1.3% [at 6.33 µM] |
| CCCCCCC(=O)Nc1nc(C)c(-c2csc(Nc3cc(Cl)ccc3OC)n2)s1 | inconclusive: 44.7 µM [inhibitor, partial curve, poor fit] | – |
| CC(=O)C1=CCC(c2ccc(Cl)cc2)N(S(=O)(=O)c2ccccc2)C1 (configuration not stated) | inconclusive: 100 µM [inhibitor, single point] | – |
| O=C1C=CC(=C(c2ccc(O)cc2)c2ccc(O)cc2)C=C1 | inconclusive: 100 µM [inhibitor, single point] | – |
| Cc1c(C(=O)Nc2cccc(C(F)(F)F)c2)sc2c1C(c1cccc(O)c1)CC(=O)N2 (configuration not stated) | inconclusive: 50.1 µM [inhibitor, partial curve, poor fit] | – |
| CC(C)CN(C(=O)C1CC1)c1c(N)n(Cc2ccccc2)c(=O)[nH]c1=O | – | inactive: 17.4% |
| CC(C)(C)Nc1nc(OCC(F)(F)F)nc(OCC(F)(F)F)n1 | inconclusive: 63.1 µM [inhibitor, partial curve, poor fit] | – |
| O=[N+]([O-])c1ccc(N/N=C/c2sc(N3CCOCC3)nc2-c2ccccc2)c(S(=O)(=O)Nc2ccccc2Cl)c1 | – | inactive: -0.0036% |
| Cc1[nH]nc2c1C1(C(=O)Nc3ccc([N+](=O)[O-])cc31)C(C#N)=C(N)O2 (configuration not stated) | – | inconclusive: -31.5% [inhibitor] |
| N#C/C(=C/c1ccc(OCc2ccccc2C#N)c(Br)c1)c1ccccc1 | – | inactive: 6.56% |
| CCC(C)NCCOCCOc1ccc(Cl)c2ccccc12 (configuration not stated) | inconclusive: 0.631 µM [inhibitor, full curve, poor fit] | – |
| O=C(NC1CCN(Cc2ccc(Cl)cc2)CC1)c1cn(-c2ccccc2)nc1-c1cccnc1 | inconclusive: 44.7 µM [inhibitor, partial curve, poor fit] | – |
| COc1ccc(/C=C/C(=O)c2cc(Br)ccc2O)cc1OC | – | inactive: -7.68% |
| c1ccc(C(=NN=C2CCCCCC2)c2ccccc2)cc1 | – | inactive: -4.29% |
| Cc1cc(Cl)ccc1NC(=O)COC(=O)c1cc([N+](=O)[O-])ccc1N1CCOCC1 | inconclusive: 44.7 µM [inhibitor, partial curve, poor fit] | – |
| COc1ccc(CNC(=S)Nc2cc(C)ccc2C)cc1 | inconclusive: 44.7 µM [inhibitor, partial curve, poor fit] | – |
| Cc1ccc(C2NC(=O)c3ccccc3N2)c(C)c1 (configuration not stated) | – | inactive: -4.86% |
| OC(c1ccccc1)c1nc(-c2ccc(F)c(Cl)c2)cs1 (configuration not stated) | inconclusive: 251 µM [inhibitor, partial curve, poor fit] | – |
| Cc1ccc(Cl)cc1N1CCN(S(=O)(=O)c2c(C)[nH]c(C)c2C(=O)N2CCCCC2)CC1 | inconclusive: 126 µM [inhibitor, partial curve, poor fit] and inconclusive: 100 µM [inhibitor, partial curve, poor fit] | – |
| COc1ccc(Cc2nnc(Nc3ccccc3OC)[nH]c2=O)cc1 | inconclusive: 100 µM [inhibitor, partial curve, poor fit] | – |
| Cc1nc(C)c(-c2csc(NCc3ccccc3)n2)s1 | inconclusive: 100 µM [inhibitor, partial curve, poor fit] | – |
| O=C(COC(=O)c1cccc(S(=O)(=O)N2CCCC2)c1)NCc1ccccc1 | inconclusive: 44.7 µM [inhibitor, partial curve, poor fit] | – |

| Compound | Potency | activity change, negative = inhibition |
| --- | --- | --- |
| CCN(CC(=O)NCc1cccs1)C(=O)C1CC(=O)N(c2cc(C)ccc2OC)C1 (configuration not stated) | – | inactive: 38.4% |
| Cc1ccc(C)c(NC(=O)CCNC(=O)C2CCCC2)c1 | inconclusive: 35.5 µM [inhibitor, single point] | – |
| COc1cccc(-n2c(SCC(=O)Nc3ccc4c(c3)CCC4)nc3ccccc3c2=O)c1 | – | inactive: -7.68% |
| O=C([C@@H]1C[C@H](c2ccc(F)cc2)N(Cc2ccccc2Cl)C1)N1CCOCC1 | inconclusive: 44.7 µM [inhibitor, full curve] | – |
| CC(/C=N/NC(=O)COc1ccccc1C)=N\NC(=O)COc1ccccc1C | inconclusive: 3.55 µM [inhibitor, full curve, poor fit] | – |
| CN(C)Cc1cc(CC2(NCc3cc4ccccc4o3)COC2)no1 | – | inactive: 28% [at 176 µM] |
| Cc1ccc(N2C(=O)SC(Cc3ccccc3)C2=O)cc1 (configuration not stated) | inconclusive: 44.7 µM [inhibitor, partial curve, poor fit] | – |
| CN(C)/C=C/C(=O)c1ccc2noc(-c3cccc(F)c3)c2c1 | inconclusive: 12.6 µM [inhibitor, full curve, poor fit] | – |
| CC(Oc1cccc(Cl)c1)C(=O)Nc1cc(S(=O)(=O)N2CCOCC2)ccc1N1CCCCC1 (configuration not stated) | – | inactive: -0.414% |
| CCc1ccc(OCC(O)Cn2cnc3c2c(=O)n(C)c(=O)n3C)cc1 (configuration not stated) | – | inactive: 3.28% |
| NC(=O)c1cnn2c(C(F)(F)F)cc(-c3ccccc3)nc12 | – | inactive: -26.7% |
| Cc1ccc(CCNS(=O)(=O)c2ccc3c(c2)NC(=O)CCS3)cc1 | – | inactive: -5.37% |
| N#C/C(=C/c1cccnc1)C(=O)NCCc1ccccc1 | inconclusive: 50.1 µM [inhibitor, partial curve, poor fit] | – |
| CCSc1ccccc1C(=O)n1nnc2ccccc21 | – | inactive: -4.5% |
| NC(=O)CCS(=O)(=O)CCN1CCCC1c1cccc(F)c1 (configuration not stated) | inconclusive: 35.5 µM [inhibitor, partial curve, poor fit] | – |
| O=C(c1cccs1)N1CCc2nc(OCC3CC3)ccc2C1 | – | inactive: 9.93% |
| Cc1ccc[n+](CC(=O)c2ccc(NC(=O)c3ccccc3)cc2)c1C | inconclusive: 112 µM [inhibitor, partial curve, poor fit] | – |
| COc1ccc(-n2c(CNc3ccc(C)cc3)nnc2SCc2ccccc2)cc1 | inconclusive: 112 µM [inhibitor, partial curve, poor fit] | – |
| Cn1c(=O)c2c(ncn2CC(=O)Nc2cccc(S(=O)(=O)Nc3ccccc3F)c2)n(C)c1=O | inconclusive: 56.2 µM [inhibitor, partial curve, poor fit] | – |
| CC(C)c1ccccc1NC(=O)c1nn(Cc2ccccc2)c(=O)c2ccccc12 | – | inactive: -4.92% |
| CCCC(C(=O)NC1CCCC1)N(C(=O)Cn1nnc(-c2ccc(C)o2)n1)C1CCCC1 (configuration not stated) | inconclusive: 22.4 µM [inhibitor, full curve, poor fit] | – |

Filtered by structure, the compounds so far with a nitro group on carbon (3)

| Compound | Potency | activity change, negative = inhibition |
| --- | --- | --- |
| O=[N+]([O-])c1ccc(N/N=C/c2sc(N3CCOCC3)nc2-c2ccccc2)c(S(=O)(=O)Nc2ccccc2Cl)c1 | – | inactive: -0.0036% |
| Cc1[nH]nc2c1C1(C(=O)Nc3ccc([N+](=O)[O-])cc31)C(C#N)=C(N)O2 (configuration not stated) | – | inconclusive: -31.5% [inhibitor] |
| Cc1cc(Cl)ccc1NC(=O)COC(=O)c1cc([N+](=O)[O-])ccc1N1CCOCC1 | inconclusive: 44.7 µM [inhibitor, partial curve, poor fit] | – |

— PubChem BioAssay AID1671190 (National Center for Advancing Translational Sciences (NCATS), 2021)
